# In PubChem BioAssay AID504467 (National Center for Advancing Translational Sciences (NCATS), 2011):
# The whole screen tested about 330,000 compounds, of which about 7,700 (2.3%) were called active. This list was built around the results that the source calls inconclusive (neither active nor inactive); the mix of calls is not that of the screen. Calls come from the whole dose curve; as a rule, active = well fitted inhibition curve with a large enough effect; inconclusive = small, poorly fitted or top-dose-only effect, or effect the other way; inactive = flat fitted curve, though single readings scatter. Potencies of inconclusive entries are doubtful fits and often do not repeat.
# Assay: qHTS screen for small molecules that inhibit ELG1-dependent DNA repair in human embryonic kidney (HEK293T) cells expressing luciferase-tagged ELG1; note: nearly all actives have a fitted effect of over 55% in size
# Details: HEK293T ELG1-luciferase reporter, luminescence, 16 h, DNA damage induced by 5-fluorouridine; series mostly up to 46.1 µM
# In short: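 Quantitative HTS, concentration-response format. 2,000 cells/well co-treated with 5-fluorouridine and compound, 16 hr in 5% CO2 at 37 °C; ONE-Glo luminescence read after 30 min.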
# Potency is the fitted concentration of half-maximal effect.
row,Compound,Potency
1,O=C(CSc1nnc(-c2cnccn2)n1Cc1ccco1)c1ccccc1,inactive
2,Nc1nc2ccccc2nc1N,"inconclusive: 29.1 µM [activator, single point]"
3,COc1ccc(C)cc1S(=O)(=O)Nc1cc2c3c(c1)CC(=O)N3CCC2,inactive
4,CCCCN(C(=O)NC(=O)C1=C(N2CCOCC2)/C(=C/c2ccccc2)CC1)S(C)(=O)=O,"inconclusive: 18.4 µM [activator, single point]"
5,COc1ccc(-n2nnc3c(=O)n(CC(=O)Nc4ccc5c(c4)OCCO5)cnc32)cc1OC,"inconclusive: 29.1 µM [activator, partial curve, poor fit]"
6,O=C(NCCn1cc(SCc2ccccc2)c2ccccc21)c1c(F)cccc1F,"inconclusive: 8.2 µM [inhibitor, partial curve, poor fit]"
7,C=C(C)C1Cc2cc3ccc(=O)oc3cc2O1 (stereo unspecified),"inconclusive: 20.6 µM [activator, partial curve]"
8,Cc1ccc(-n2c(N)c(C(=O)N3CCN(C)CC3)sc2=S)cc1,"inconclusive: 1.16 µM [activator, single point]"
9,CCc1ccc(C(=O)NNC(=O)c2cccc(N3C(=O)CCC3=O)c2)cc1,inactive
10,CCC1=NN2C(=N)/C(=C\c3cccn3-c3ccc(Cl)cc3)C(=O)N=C2S1,"inconclusive: 4.61 µM [inhibitor, partial curve, poor fit]"
11,c1ccc(-c2ccn3nnnc3n2)cc1,"inconclusive: 14.6 µM [activator, single point]"
12,COc1ccc(Cn2ccc(=O)c(Cc3c(Cl)cccc3Cl)c2C)cc1,inactive
13,CC(C)(CO)NCc1ccccc1OCC(=O)Nc1ccccc1,"inconclusive: 23.1 µM [activator, single point]"
14,CC(O)C(=O)NCCOCCOCCNC(=O)C(C)O (stereo unspecified),"inconclusive: 23.1 µM [activator, single point]"
15,COCCNc1nc(SCC(=O)N2CCN(c3ccccc3)CC2)nc2ccccc12,"inconclusive: 29.1 µM [inhibitor, single point]"
16,O=C(CSc1nc2[nH]ncc2c(=O)n1-c1ccccc1)c1ccc2c(c1)OCCO2,"inconclusive: 18.4 µM [inhibitor, single point]"
17,COC(=O)Cc1ccc(NC(=S)Nc2ccccn2)cc1,"inconclusive: 9.2 µM [activator, partial curve]"
18,CC1(c2ccccc2)NC(=O)N(CC(=O)Nc2ccccc2N2CCCCC2)C1=O (stereo unspecified),"inconclusive: 29.1 µM [activator, partial curve, poor fit]"
19,CCCS(=O)(=O)N1CCCC(C(=O)NCCN(CC)CC)C1 (stereo unspecified),"inconclusive: 6.51 µM [inhibitor, single point]"
20,CC(C)N1CCc2c(sc(NC(=O)CCS(=O)(=O)c3ccccc3)c2C#N)C1,"inconclusive: 29.1 µM [inhibitor, single point]"
21,Cn1c(=O)[nH]c(=O)c2c1nc(SCC(O)CO)n2Cc1ccccc1Cl (stereo unspecified),"inconclusive: 11.6 µM [activator, partial curve]"
22,Cc1ccc(C(=O)NC2CCCCC2)cc1,"inconclusive: 12.6 µM [activator, partial curve, poor fit]"

row,Compound,Potency
1,CCOC(=O)c1cnc2ccc(OCC)cc2c1NCc1cccnc1,"inconclusive: 7.31 µM [inhibitor, partial curve]"
2,CN(C)/C=C(\C#N)C(=O)c1cccnc1Oc1cccc(F)c1,"inconclusive: 20.6 µM [activator, single point]"
3,CCOc1ccc(Nc2ccnc3cc(Cl)ccc23)cc1,"inconclusive: 18.3 µM [inhibitor, single point]"
4,Cc1c(CN(C)C)c2c(n1Cc1ccccc1)C(=O)c1ccc(Br)cc1-2,inactive
5,COC(=O)c1ccc(CSc2ccc3nnc(-c4ccccc4)n3n2)o1,"inconclusive: 25.9 µM [inhibitor, partial curve]"
6,Nc1ncc(Br)cc1S(=O)(=O)Nc1cc(C(F)(F)F)cc(C(F)(F)F)c1,"inconclusive: 5.8 µM [inhibitor, partial curve, poor fit]"
7,CN(C)CCn1c(=S)[nH]c2ncccc2c1=O,"inconclusive: 13 µM [activator, partial curve, poor fit]"
8,O=C(NN=C(c1ccccc1)c1ccccn1)c1ccccc1,"inconclusive: 29.1 µM [activator, single point]"
9,CC(C)c1ccc(/C=C/C(=O)N2CCCCCC2)cc1,"inconclusive: 20.6 µM [activator, partial curve]"
10,Nc1c(Cl)ncnc1N/N=C/c1cccc(O)c1,"inconclusive: 13 µM [activator, partial curve]"
11,CN(C)/C=C/C(=O)c1ccccc1OCc1cnc(Cl)s1,inactive
12,COc1ccc2c(OC)cc(=O)n(C)c2c1,"inconclusive: 13 µM [activator, partial curve, poor fit]"
13,CCOc1ccc(NC(=O)C2CCCN(S(=O)(=O)c3ccc4c(c3)CC(C)N4C(C)=O)C2)cc1 (stereo unspecified),"inconclusive: 20.6 µM [inhibitor, single point]"
14,CCCCc1c(O)nc(SCC(=O)c2ccccc2)n(-c2ccccc2)c1=O,inactive
15,CC(C)(C)C(=O)C1=C(O)C(=O)N(Cc2ccccc2)C1c1ccccc1F (stereo unspecified),"inconclusive: 3.16 µM [activator, partial curve]"
16,CCC(c1nnnn1CCOC)N(Cc1ccc(C)cc1)Cc1cc2cc(OC)ccc2[nH]c1=O (stereo unspecified),"inconclusive: 17.8 µM [inhibitor, single point]"
17,COc1ccccc1C1(CCNC(C)c2cccs2)CCOC(C(C)C)C1 (stereo unspecified),"inconclusive: 25.9 µM [inhibitor, partial curve]"
18,O=C(Nc1ccc(-c2cn3ccccc3n2)cc1)c1ccco1,"inconclusive: 2.91 µM [activator, full curve]"
19,O=C(Nc1nc(-c2cccs2)cs1)c1cccc(S(=O)(=O)N2CCCCCC2)c1,"inconclusive: 2.31 µM [activator, single point]"
20,Cc1ccc(-n2c(C)c([N+](=O)[O-])c3ccc(O)c(CN(C)C)c32)cc1,"inconclusive: 3.66 µM [inhibitor, full curve]"
21,Cc1ccc2nc3ccc(N4CCCC4)nn3c(=O)c2c1,"inconclusive: 10.3 µM [activator, partial curve]"
22,COc1ccc(N(CC(=O)NCc2ccc3c(c2)OCO3)S(=O)(=O)c2ccccc2[N+](=O)[O-])c(OC)c1,inactive

row,Compound,Potency
1,Cc1cc(C)cc(N2C(=O)CC(Sc3ccccc3C(=O)O)C2=O)c1 (stereo unspecified),inactive
2,Cc1ccccc1OCc1occc1C(=O)Nc1cccc(-n2cnnn2)c1,"inconclusive: 16.4 µM [inhibitor, single point]"
3,O=C(COc1nsnc1N1CCOCC1)N/N=C/c1ccccc1O,"inconclusive: 29.1 µM [inhibitor, single point]"
4,Cc1ccsc1C1NC(=O)c2c(sc3c2CCCC3)N1 (stereo unspecified),"inconclusive: 18.4 µM [activator, partial curve]"
5,Cc1nn(-c2ccccc2)c(Cl)c1C(=O)OC(C)C(=O)NC(=O)NC1CCCCC1 (stereo unspecified),"inconclusive: 29.1 µM [inhibitor, single point]"
6,O=C(COC(=O)COc1ccc(Cl)cc1Cl)NC1CCCCCC1,inactive
7,CCC(C)NC(=O)c1cc2cc3ccc(OC)cc3nc2s1 (stereo unspecified),"inconclusive: 0.731 µM [activator, partial curve]"
8,N=c1c(C(=O)NC2CCCC2)cc2c(=O)n3ccccc3nc2n1Cc1ccccc1,"inconclusive: 18.3 µM [inhibitor, partial curve, poor fit]"
9,CC(C)c1ccc(CNc2ccc([N+](=O)[O-])cn2)cc1,"inconclusive: 9.2 µM [activator, partial curve]"
10,COc1ccc(NC(=O)C/C(C)=N/NC(=O)c2cnccn2)cc1Cl,"inconclusive: 13 µM [activator, partial curve]"
11,COc1ccc(N2CC(C(=O)Nc3ccccc3N3CCCC3)CC2=O)c(OC)c1 (stereo unspecified),inactive
12,C[C@H](NC(=O)C1CC(=O)N(c2ccc3c(c2)OCO3)C1)C(=O)NC1CCCCC1 (stereo partly specified),inactive
13,CCN(CC)c1ccc(-c2n[nH]c(=S)n2-c2ccccc2C)cc1,"inconclusive: 29.1 µM [inhibitor, single point]"
14,COCCNC(=O)C(c1cccnc1)N(Cc1ccc(C)cc1)C(=O)Cn1nnc2ccccc21 (stereo unspecified),inactive
15,CC(OC(=O)c1ccc(Cl)c(S(=O)(=O)N2CCc3ccccc32)c1)C(=O)Nc1ncc(Cl)cc1Cl (stereo unspecified),"inconclusive: 0.731 µM [inhibitor, partial curve, poor fit]"
16,O=C1CC(NC2CCN(C(=O)c3cccc(F)c3)CC2)C(=O)N1 (stereo unspecified),inactive
17,CC(=O)c1cccc(NC(=O)Nc2cnn(Cc3ccc(F)cc3)c2)c1,"inconclusive: 29.1 µM [inhibitor, single point]"
18,COc1ccc(N2CCN(C3CC(=O)N(Cc4ccc(N5CCCC5=O)cc4)C3=O)CC2)cc1 (stereo unspecified),"inconclusive: 25.9 µM [inhibitor, single point]"
19,COc1ccc(Cl)cc1NC(=O)CN(C)C(=O)c1cc2c(F)cccc2s1,"inconclusive: 29.1 µM [inhibitor, single point]"
20,CC1CCN(S(=O)(=O)c2ccc3c(c2)N(C)C(=O)CC(=O)N3C)CC1,inactive
21,COc1ccc(NC(=O)c2ccccc2NC(=O)c2cccs2)cc1,"inconclusive: 8.2 µM [activator, partial curve, poor fit]"
22,N/C(=N\OC(=O)COc1ccc(Br)cc1Cl)c1ccncc1,"inconclusive: 10.3 µM [activator, partial curve]"

# Shown tab-delimited: part of the list above
row	Compound	Potency
2	Cc1ccccc1OCc1occc1C(=O)Nc1cccc(-n2cnnn2)c1	inconclusive: 16.4 µM [inhibitor, single point]
3	O=C(COc1nsnc1N1CCOCC1)N/N=C/c1ccccc1O	inconclusive: 29.1 µM [inhibitor, single point]
5	Cc1nn(-c2ccccc2)c(Cl)c1C(=O)OC(C)C(=O)NC(=O)NC1CCCCC1 (stereo unspecified)	inconclusive: 29.1 µM [inhibitor, single point]
6	O=C(COC(=O)COc1ccc(Cl)cc1Cl)NC1CCCCCC1	inactive
7	CCC(C)NC(=O)c1cc2cc3ccc(OC)cc3nc2s1 (stereo unspecified)	inconclusive: 0.731 µM [activator, partial curve]
8	N=c1c(C(=O)NC2CCCC2)cc2c(=O)n3ccccc3nc2n1Cc1ccccc1	inconclusive: 18.3 µM [inhibitor, partial curve, poor fit]
11	COc1ccc(N2CC(C(=O)Nc3ccccc3N3CCCC3)CC2=O)c(OC)c1 (stereo unspecified)	inactive
12	C[C@H](NC(=O)C1CC(=O)N(c2ccc3c(c2)OCO3)C1)C(=O)NC1CCCCC1 (stereo partly specified)	inactive
13	CCN(CC)c1ccc(-c2n[nH]c(=S)n2-c2ccccc2C)cc1	inconclusive: 29.1 µM [inhibitor, single point]
14	COCCNC(=O)C(c1cccnc1)N(Cc1ccc(C)cc1)C(=O)Cn1nnc2ccccc21 (stereo unspecified)	inactive
15	CC(OC(=O)c1ccc(Cl)c(S(=O)(=O)N2CCc3ccccc32)c1)C(=O)Nc1ncc(Cl)cc1Cl (stereo unspecified)	inconclusive: 0.731 µM [inhibitor, partial curve, poor fit]
16	O=C1CC(NC2CCN(C(=O)c3cccc(F)c3)CC2)C(=O)N1 (stereo unspecified)	inactive
17	CC(=O)c1cccc(NC(=O)Nc2cnn(Cc3ccc(F)cc3)c2)c1	inconclusive: 29.1 µM [inhibitor, single point]
18	COc1ccc(N2CCN(C3CC(=O)N(Cc4ccc(N5CCCC5=O)cc4)C3=O)CC2)cc1 (stereo unspecified)	inconclusive: 25.9 µM [inhibitor, single point]
19	COc1ccc(Cl)cc1NC(=O)CN(C)C(=O)c1cc2c(F)cccc2s1	inconclusive: 29.1 µM [inhibitor, single point]
20	CC1CCN(S(=O)(=O)c2ccc3c(c2)N(C)C(=O)CC(=O)N3C)CC1	inactive
21	COc1ccc(NC(=O)c2ccccc2NC(=O)c2cccs2)cc1	inconclusive: 8.2 µM [activator, partial curve, poor fit]
22	N/C(=N\OC(=O)COc1ccc(Br)cc1Cl)c1ccncc1	inconclusive: 10.3 µM [activator, partial curve]
